Results as given in US6645501B2, “Anti-pathogen system and methods of use thereof” (Washington University, priority 1997, dated 2003).
Changes are numbered by the printed parent chain. Some of these results come from one statement about several compounds together.

B1: TAT-Casp3WT: TAT-D site-p17-A site-p12 modified Caspase-3 fusion protein, Pro domain replaced by TAT transduction domain (protein)
chain: GRKKRRQRRRGYPYDVPDYACTERQANFLGKIWPGISLDNSYKMDYPEMGLCIIINNKNFHKSTGMTSRSGTDVDAANLRETFRNLKYEVRNKNDLTREEIVELMRDVSKEDHSKRSSFVCVLLSHGEEGIIFGTNGPVDLKKITNFFRGDRCRSLTGKPKLFIIQACRGTELDCGIETSQVSQNYPIVQNLQGVDDDMACHKIPVEADFLYAYSTAPGYYSWRNSKDGSWFIQSLCAMLKQYADKLEFMHILTRVNRKVATEFESFSFDATFHAKKQIPCIVSMLTKELYFYH
modifications: left off: small tags and cut ends
notes: TAT-D site-p17-A site-p12 modified Caspase-3 fusion protein, Pro domain replaced by TAT transduction domain
B2: TAT-Casp3MUT: catalytically inactive TAT-Casp3 with Met substituted for the active site Cys163 residue (protein)
chain: B1 chain with C168M
modifications: left off: small tags and cut ends

Tested on: Jurkat T cells
Experiment: FACS and confocal analysis of FITC-labeled TAT fusion proteins added to Jurkat T cells
Format: cell-based
Settings: FITC-labeled protein
Procedure: To test the ability of TAT-Casp3 proteins to transduce into cells, TAT-Casp3 proteins were conjugated to fluorescein (FITC), then added directly to the media of Jurkat T cells and analyzed by Flow Cytometry (FACS) (FIGS. 9B-C). Both TAT-Casp3WT and TAT-Casp3MUT proteins rancidly transduced into ˜100% of cells, achieving maximum intracellular concentration in less than 20 min. In addition, based on the narrow peak width before and after addition of FITC labeled proteins, individual cells within the population contain near identical intracellular concentrations of TAT-Casp3-FITC protein. […] Thus, TAT-Casp3 proteins readily transduce into 100% of all cells inca rapid and concentration-dependent fashion.
The generation and transduction of TAT fusion proteins shown in FIGS. 9A-E are explained in more detail as follows: FIG. 9A. Diagram depicting HIV cleavage site sequences and domains of TAT fusion proteins. FIGS. 9B-D. FACS kinetic analysis of fluorescein (FITC) labeled TAT-Casp3WT, TAT-Casp3MUT and TAT-HIV Pr proteins added to cells at 0, 20 and 30 min. FIG. 9E. FACS dose analysis of 3, 6, and 12 nM TAT-Casp3WT-FITC protein added to cells at I hr post-addition. Note rapid, concentration-dependent transduction of all FITC labeled protein into ˜100% of cells and near identical intracellular concentration within the population as measured by FACS peak width of control vs. transduced cells.
1. […]

Row | Molecule | time to maximum intracellular concentration
1 | B1 | less than 20 min
2 | B2 | less than 20 min
